According to publication PMC10177021:
These are yes or no findings as the source states them, for the method shown. In cells and extracts the contact can be indirect. Some results given as binding are weak or reduced against the parent protein; the word gives no strength. For some assays here: Tags and fused reporters may be left off the sequences shown. Blank lines part the entries; values can stand above or below the binder they belong to.

By UniProt entry, the sequences of proteins in these tests, tags left out.
UniProt Q6WVG3: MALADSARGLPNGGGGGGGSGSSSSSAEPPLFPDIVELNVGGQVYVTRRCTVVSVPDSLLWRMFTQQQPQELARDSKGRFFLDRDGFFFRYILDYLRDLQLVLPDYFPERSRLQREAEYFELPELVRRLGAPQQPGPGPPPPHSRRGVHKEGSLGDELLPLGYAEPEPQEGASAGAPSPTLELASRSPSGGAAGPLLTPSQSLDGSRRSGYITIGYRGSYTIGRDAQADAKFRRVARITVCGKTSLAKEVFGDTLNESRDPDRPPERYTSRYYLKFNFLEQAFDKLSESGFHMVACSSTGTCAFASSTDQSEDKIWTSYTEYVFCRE

Columns and labels:
[1] = target: mouse KCTD12, recombinant in HEK293 cells (mouse) (UniProt Q6WVG3); assay: co-IP; KCTD12 immunoprecipitated with a guinea pig polyclonal anti-KCTD12 antibody from whole cell lysates of HEK293 cells stably expressing KCTD12 and transiently transfected with mGlu1α or GABAB2-YFP (mock-transfected as control); immunoblot
[2] = target: mouse KCTD12, recombinant in HEK293 cells (mouse), Q6WVG3; assay: as above; conditions: remark: other sources report otherwise

- binding [1]: binds
B1: mouse GABAB2-YFP (receptor, UniProt Q80T41 41-940)
chain: WARGAPRPPPSSPPLSIMGLMPLTKEVAKGSIGRGVLPAVELAIEQIRNESLLRPYFLDLRLYDTECDNAKGLKAFYDAIKYGPNHLMVFGGVCPSVTSIIAESLQGWNLVQLSFAATTPVLADKKKYPYFFRTVPSDNAVNPAILKLLKHFRWRRVGTLTQDVQRFSEVRNDLTGVLYGEDIEISDTESFSNDPCTSVKKLKGNDVRIILGQFDQNMAAKVFCCAFEESMFGSKYQWIIPGWYEPAWWEQVHVEANSSRCLRRSLLAAMEGYIGVDFEPLSSKQIKTISGKTPQQYEREYNSKRSGVGPSKFHGYAYDGIWVIAKTLQRAMETLHASSRHQRIQDFNYTDHTLGRIILNAMNETNFFGVTGQVVFRNGERMGTIKFTQFQDSREVKVGEYNAVADTLEIINDTIRFQGSEPPKDKTIILEQLRKISLPLYSILSALTILGMIMASAFLFFNIKNRNQKLIKMSSPYMNNLIILGGMLSYASIFLFGLDGSFVSEKTFETLCTVRTWILTVGYTTAFGAMFAKTWRVHAIFKNVKMKKKIIKDQKLLVIVGGMLLIDLCILICWQAVDPLRRTVERYSMEPDPAGRDISIRPLLEHCENTHMTIWLGIVYAYKGLLMLFGCFLAWETRNVSIPALNDSKYIGMSVYNVGIMCIIGAAVSFLTRDQPNVQFCIVALVIIFCSTITLCLVFVPKLITLRTNPDAATQNRRFQFTQNQKKEDSKTSTSVTSVNQASTSRLEGLQSENHRLRMKITELDKDLEEVTMQLQDTPEKTTYIKQNHYQELNDILSLGNFTESTDGGKAILKNHLDQNPQLQWNTTEPSRTCKDPIEDINSPEHIQRRLSLQLPILHHAYLPSIGGVDASCVSPCVSPTASPRHRHVPPSFRVMVSGL

- binding [2]: no binding
B2: mouse mGlu1α, recombinant in HEK293 cells, P97772 21-1199 (receptor)
chain: RMPDRKVLLAGASSQRSVARMDGDVIIGALFSVHHQPPAEKVPERKCGEIREQYGIQRVEAMFHTLDKINADPVLLPNITLGSEIRDSCWHSSVALEQSIEFIRDSLISIRDEKDGLNRCLPDGQTLPPGRTKKPIAGVIGPGSSSVAIQVQNLLQLFDIPQIAYSATSIDLSDKTLYKYFLRVVPSDTLQARAMLDIVKRYNWTYVSAVHTEGNYGESGMDAFKELAAQEGLCIAHSDKIYSNAGEKSFDRLLRKLRERLPKARVVVCFCEGMTVRGLLSAMRRLGVVGEFSLIGSDGWADRDEVIEGYEVEANGGITIKLQSPEVRSFDDYFLKLRLDTNTRNPWFPEFWQHRFQCRLPGHLLENPNFKKVCTGNESLEENYVQDSKMGFVINAIYAMAHGLQNMHHALCPGYVGLCDAMKPIDGRKLLDFLIKSSFVGVSGEEVWFDEKGDAPGRYDIMNLQYTEANRYDYVHVGTWHEGVLNIDDYKIQMNKSGMVRSVCSEPCLKGQIKVIRKGEVSCCWICTACKENEFVQDEFTCRACDLGWWPNAELTGCEPITIRYLEWSDIESIIAIAFSCLGILVTLFVTLIFVLYRDTPVVKSSSRELCYIILAGIFLGYVCPFTLIAKPTTTSCYLQRLLVGLSSAMCYSALVTKTNRIARILAGSKKKICTRKPRFMSAWAQVIIASILISVQLTLVVTLIIMEPPMPILSYPSIKEVYLICNTSNLGVVAPVGYNGLLIMSCTYYAFKTRNVPANFNEAKYIAFTMYTTCIIWLAFVPIYFGSNYKIITTCFAVSLSVTVALGCMFTPKMYIIIAKPERNVRSAFTTSDVVRMHVGDGKLPCRSNTFLNIFRRKKPGAGNANSNGKSVSWSEPGGRQAPKGQHVWQRLSVHVKTNETACNQTAVIKPLTKSYQGSGKSLTFSDASTKTLYNVEEEDNTPSTHFSPPSSPSMVVHRRGPPVATTPPLPPHLSAEETPLFLADSVIPKGLPPPLPQQQQQPPPQPPPQQPKSLMDQLQGVVTNFGSGIPDFHAVLAGPGTPGNGLRSLYPPPPPPQHLQMLPLQLSTFREEPISPPGEDDDDDSSERFKLLQEFVYEREGNTEEDDLEEEEDLPAASKLTPEDSPALTPPSPFRDSVASGSSVPSSPVSESVLCTPPNVTYASVILRDYKQSSSTL
